Laboratory results taken from publication PMC11962866 (RSC Advances, 2025).
pIC50: −log10 of the molar value.

System: MRC-5 cells
Test: Cytotoxicity assay on normal cells
Type: cell-based
Conditions: Homo sapiens, MRC5, 72 h, read-out: IC50 on MRC-5 cell lines

`Clc1ccc(COC(Cn2ccnc2)c2ccc(Cl)cc2Cl)c(Cl)c1` (stereo not shown) [Miconazole, miconazole] was tested, and the pIC50 was < 4.00.
